Data as given in PubChem BioAssay AID1224830 (NIAID, 2016)
Assay: 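Host factors that control LPS-induced TNF expression in human macrophages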 (primary screen). Cell system: human THP-1 monocytic leukaemia cells, TNF dual-luciferase reporter clone, PMA-differentiated to macrophage-like cells. Reagents: siRNA pool against human genes, 50 nM. Time to read-out: LPS for 4 h, given about 3 days after siRNA transfection. Treatment: bacterial LPS (TLR4 ligand), 10 ng/ml. Detection: 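TNF firefly reporter luminescence divided by renilla, normalised to the plate median, then turned into a robust z-score for each replicate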. Direction: TNF reporter robust z-score: higher = stronger TNF reporter response to LPS. Hit rule: 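Each well counts as active if its z-score is over 2.8 or under -1.5; controls are left without a call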.
This is a random part of about 18,000 reagents tested. About 2,900 of them (16%) were called active. 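Calls are made per well; low scores hint the gene aids the LPS response, high scores that it dampens it.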 Repeated entries: four replicate wells of each siRNA pool.

Silencing of TRIM6 resulted in: TNF reporter robust z-score 0.08; inactive.
TRIM6 showed TNF reporter robust z-score -0.67; inactive.
For TRIM6, the entry reads TNF reporter robust z-score -0.43; inactive.
Knock-down of TRIM6 gave: TNF reporter robust z-score 0; inactive.
CDC37L1 showed TNF reporter robust z-score 1.79; inactive.
CDC37L1 scored TNF reporter robust z-score 1.89; inactive.
Depletion of CDC37L1 gave: TNF reporter robust z-score 0.86; inactive.
For CDC37L1, the entry reads TNF reporter robust z-score 2.05; inactive.
After knock-down of LRCH1, the screen gave TNF reporter robust z-score 0.6; inactive.
Against LRCH1, the values are TNF reporter robust z-score 1.03; inactive.
Depletion of LRCH1 came out at: TNF reporter robust z-score 0.65; inactive.
IFNLR1 gave TNF reporter robust z-score 2.78; inactive.
IFNLR1 scored TNF reporter robust z-score 3.58; active.
IFNLR1 gave TNF reporter robust z-score 3.95; active.
Against IFNLR1, the entry reads TNF reporter robust z-score 4.68; active.
Silencing of ELFN2 gave: TNF reporter robust z-score 1.71; inactive.
With knock-down of ELFN2, the screen gave TNF reporter robust z-score -0.11; inactive.
Depletion of ELFN2 came out at: TNF reporter robust z-score 0.61; inactive.
Silencing of ELFN2 gave: TNF reporter robust z-score 2.77; inactive.

Records listed so far marked active:
IFNLR1: TNF reporter robust z-score = 3.58; Call = active
IFNLR1: TNF reporter robust z-score = 3.95; Call = active
IFNLR1: TNF reporter robust z-score = 4.68; Call = active

Next results follow:
With knock-down of PTP4A1, the screen gave TNF reporter robust z-score 0.13; inactive.
PTP4A1 scored TNF reporter robust z-score 0; inactive.
For PTP4A1, the values are TNF reporter robust z-score -0.03; inactive.
PTP4A1 gave TNF reporter robust z-score -0.62; inactive.
After knock-down of C1orf216 the results were TNF reporter robust z-score 0.94; inactive.
After knock-down of C1orf216 the results were TNF reporter robust z-score 1.75; inactive.
C1orf216 scored TNF reporter robust z-score -0.02; inactive.
C1orf216 showed TNF reporter robust z-score 1.19; inactive.
Depletion of ZNF253 resulted in: TNF reporter robust z-score -1.13; inactive.
For ZNF253, the entry reads TNF reporter robust z-score -0.1; inactive.
Knock-down of ZNF253 gave: TNF reporter robust z-score -0.52; inactive.
For ZNF253, the values are TNF reporter robust z-score -0.32; inactive.
SAR1B scored TNF reporter robust z-score 1.27; inactive.
SAR1B showed TNF reporter robust z-score 0.57; inactive.
SAR1B scored TNF reporter robust z-score 1.78; inactive.
Depletion of SAR1B gave: TNF reporter robust z-score 0.23; inactive.
After knock-down of C10orf53, the record shows TNF reporter robust z-score -0.07; inactive.
With knock-down of C10orf53 the results were TNF reporter robust z-score -0.02; inactive.
Against C10orf53 the deposit lists TNF reporter robust z-score -0.88; inactive.
Silencing of C10orf53 gave: TNF reporter robust z-score 0.89; inactive.
Depletion of CLDND2 gave: TNF reporter robust z-score -1.47; inactive.
CLDND2 scored TNF reporter robust z-score 0.18; inactive.
Knock-down of CLDND2 gave: TNF reporter robust z-score -0.01; inactive.
With knock-down of CLDND2, the screen gave TNF reporter robust z-score 0.37; inactive.
Silencing of CC2D2B gave: TNF reporter robust z-score 0.48; inactive.
CC2D2B showed TNF reporter robust z-score 0.68; inactive.
With knock-down of CC2D2B the results were TNF reporter robust z-score 0.44; inactive.
For CC2D2B, the values are TNF reporter robust z-score 0.37; inactive.
